Source: publication PMC7819943, “Rice protein-binding microarrays: a tool to detect cis-acting elements near promoter regions in rice”
The other results are listed elsewhere or left out.

Protein sequences, listed by entry. Tags and fused reporters are not part of them.
UniProt Q0JBA9, entry or part of it: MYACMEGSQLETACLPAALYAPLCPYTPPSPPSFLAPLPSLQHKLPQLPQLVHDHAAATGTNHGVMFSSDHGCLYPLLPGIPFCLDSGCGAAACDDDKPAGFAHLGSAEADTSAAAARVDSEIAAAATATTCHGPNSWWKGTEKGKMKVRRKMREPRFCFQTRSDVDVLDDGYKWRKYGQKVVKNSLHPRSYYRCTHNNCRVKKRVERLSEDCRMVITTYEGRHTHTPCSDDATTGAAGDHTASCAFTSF

biological target: OsWRKY34 (Oryza sativa, UniProt Q0JBA9 1-250); experiment: protein-binding microarray (RPBM); PBS, 2% BSA, 51.3 ng/ul salmon testes DNA, 50 uM zinc acetate, 200 nM TF, 25 C, 1 h; high values mean tight binding; conditions: protein: recombinant; tags: N-terminal polyhistidine and DsRed monomer fusion (pET32a); label: CyDye5-dUTP incorporated in the synthesized complementary strand; 3' TTTTT single-stranded linker to array surface; dsDNA, one strand shown
In short: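 Transcription factors were made in E. coli BL21-CodonPlus as N-terminal fusions to a polyhistidine tag and DsRed, then purified on Ni–NTA. After primer extension with Cy5-dUTP and blocking with 2% BSA, a custom Agilent array was exposed for 1 h at 25 °C to 200 nM protein in PBS, 2% BSA, salmon testes DNA and 50 µM zinc acetate. Washed arrays were scanned on an Axon 4000B, and the binding signal is per-feature fluorescence intensity in arbitrary units.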

Compared with “GTCCGCTGCTTTTCTCCCTTGTCGGTTATTTTACCTCTTCCGGAGTCACCTAGTGCAG”, “AATGACTTTTGCTAGTATACTAGCCTTTTTGCGAACTCTTCGGAGTCACCTAGTGCAG” is lower in binding signal: 18900 fluorescence intensity (a.u.) for the first, 9400 fluorescence intensity (a.u.) for the second.

Going from “AACTATTCCCTACTTCCGTTACAGCTGTCTCCTCCTCCTCCGGAGTCACCTAGTGCAG” to “TTTCTTTTTAATTTCCACGTTCTTATCGCCATCGACTCTACGGAGTCACCTAGTGCAG”, the binding signal falls from 8500 fluorescence intensity (a.u.) to 8130 fluorescence intensity (a.u.).

Compared with “TGTCACACGATGCGAGCGCACAAGCCTCACACTGTTTTGTCGGAGTCACCTAGTGCAG”, “GGTACGGTTTTTTGCTATTTTTTTCATGTGTTCGCATCACCGGAGTCACCTAGTGCAG” is higher in binding signal: 8760 fluorescence intensity (a.u.) for the first, 12500 fluorescence intensity (a.u.) for the second.

First: CACTCGATTTTCTGACTCAAATTTACAGTGCATTTTCTTACGGAGTCACCTAGTGCAG
Second: ATGTGATTAAATGGAGGGTTTTCGGGGAGGGTTTTCGGGGCGGAGTCACCTAGTGCAG
The binding signal of the first is lower: 9450 fluorescence intensity (a.u.) for the first, 24100 fluorescence intensity (a.u.) for the second.

First: CGGACGCCTTTCACCCTTTCCGGCTTTCCCCACTGGTTCTCGGAGTCACCTAGTGCAG
Second: TCCGGTCTCCAACTCTCCGCTGCCAGCGCCACCACCAACACGGAGTCACCTAGTGCAG
The binding signal of the first is lower: 9540 fluorescence intensity (a.u.) for the first, 12300 fluorescence intensity (a.u.) for the second.

Compared with “ACGCATCGCGTTCGGGAATCTTTCCTCGTTTTCTCCCCTTCGGAGTCACCTAGTGCAG”, “GTCCCATCACCTTATTTCTCATTTTGATTTACTTTTATCTCGGAGTCACCTAGTGCAG” is higher in binding signal: 8490 fluorescence intensity (a.u.) for the first, 9330 fluorescence intensity (a.u.) for the second.

Going from “CCGTTGCTTTTTGTGTGTGTGTGTGTGTGTGTACAAAATCCGGAGTCACCTAGTGCAG” to “ATTGCTTACGTTTTTTCTCTCCTTTCCCATTTTTCGTCTTCGGAGTCACCTAGTGCAG”, the binding signal rises from 10800 fluorescence intensity (a.u.) to 11700 fluorescence intensity (a.u.).

First: GACGCCCACACCGGCTCCGATATCTTCCGCGACTGCGTCCCGGAGTCACCTAGTGCAG
Second: CATTCATTTCCCTTGACCGTTGTTGCCTTGCGCCACTGCGCGGAGTCACCTAGTGCAG
The binding signal of the first is lower: 8630 fluorescence intensity (a.u.) for the first, 9620 fluorescence intensity (a.u.) for the second.

First: TGTATAGCTAATATATATGCTACTCTCTTTTTTATTTTTTCGGAGTCACCTAGTGCAG
Second: CCTCTCCGTCCCAAGCCAGTTTGCCGCTCTCCGGCTCCTCCGGAGTCACCTAGTGCAG
The binding signal of the first is higher: 10100 fluorescence intensity (a.u.) for the first, 9990 fluorescence intensity (a.u.) for the second.

Compared with “AGTCAAATTTGTTTTTTTTCGTTGCAACTTGTATAATTTACGGAGTCACCTAGTGCAG”, “TAATGCTTAGCTGTTTCTTTTTCGGTTTGTCGTGATTTCACGGAGTCACCTAGTGCAG” is higher in binding signal: 9430 fluorescence intensity (a.u.) for the first, 11600 fluorescence intensity (a.u.) for the second.

First: TACTCGTCGTCATCCTCACCGTCTCTAATACATACTTCCCCGGAGTCACCTAGTGCAG
Second: CCGATTCCCAACCAACCACGCGTCCGGTACCCGAGCCACTCGGAGTCACCTAGTGCAG
The binding signal of the first is lower: 8930 fluorescence intensity (a.u.) for the first, 11000 fluorescence intensity (a.u.) for the second.

Compared with “ATAACTTTAGCCAGCAGGTTGGTAAGGGTGGGTTTGGAGCCGGAGTCACCTAGTGCAG”, “TGGAGGAGAATCTTGTTGTGGCCTCTTCATTTTTTTTTCCCGGAGTCACCTAGTGCAG” is lower in binding signal: 11700 fluorescence intensity (a.u.) for the first, 8520 fluorescence intensity (a.u.) for the second.

First: AACCAGCTAGTCAGTCAGTCCTACCAAATCATCCGTGCTCCGGAGTCACCTAGTGCAG
Second: GTTCTTTATGGGCGTCCTCTTTGCCTGTTTTGCTGGGTGACGGAGTCACCTAGTGCAG
The binding signal of the first is lower: 8050 fluorescence intensity (a.u.) for the first, 9570 fluorescence intensity (a.u.) for the second.

Going from “CGAGAGGCCTTTTCTACGGTTTCAGTGCTCCGCTATATAGCGGAGTCACCTAGTGCAG” to “CCTCGGTCCATCAAAGTAGCCCATCTACCGATCACACCTGCGGAGTCACCTAGTGCAG”, the binding signal falls from 9560 fluorescence intensity (a.u.) to 9370 fluorescence intensity (a.u.).

Compared with “GGATTCTTTTCAGTTTCTTGTTTATTTAGTTGTTTCAGCTCGGAGTCACCTAGTGCAG”, “ACTAGAGTTGGAGTTGGAGTTGGGAGCTGGGAGTTGGAGTCGGAGTCACCTAGTGCAG” is higher in binding signal: 8380 fluorescence intensity (a.u.) for the first, 8570 fluorescence intensity (a.u.) for the second.

Going from “CTCCAGCTCTTTTGTAGCTTCTTCATACATAGATCCACAACGGAGTCACCTAGTGCAG” to “TGATCTCTTCTTTTTGCTCGCTGCAGGTGGGTCCCCAGCTCGGAGTCACCTAGTGCAG”, the binding signal falls from 9290 fluorescence intensity (a.u.) to 8100 fluorescence intensity (a.u.).

First: ACCTCTCTCCTCCGCGCCGCCGACGAACCACCGCCGCCGACGGAGTCACCTAGTGCAG
Second: TAGTACAATGGGTGCCCTCAACGGAATAAACCGCTATACCCGGAGTCACCTAGTGCAG
The binding signal of the first is lower: 9580 fluorescence intensity (a.u.) for the first, 37000 fluorescence intensity (a.u.) for the second.

Compared with “CGCCTCTGCAACTTCTCTTGTGTTTCTCTGAACTTGCCATCGGAGTCACCTAGTGCAG”, “GTCAGCTCGCTTTGTTTTCTGTTTTCTCGCTTTTTTTTCCCGGAGTCACCTAGTGCAG” is higher in binding signal: 9710 fluorescence intensity (a.u.) for the first, 14300 fluorescence intensity (a.u.) for the second.

Compared with “TTTCAATGTCAATGTACCCTGCTACTACTTGTGTTACTTCCGGAGTCACCTAGTGCAG”, “GAAGTGGGTGAGGAGGGGTGATTGCTCGGGGACGCGTTGCCGGAGTCACCTAGTGCAG” is lower in binding signal: 9310 fluorescence intensity (a.u.) for the first, 8550 fluorescence intensity (a.u.) for the second.

Compared with “TAGGGTGTGTGTGCGTTTATAGGGATGAGTGTGCGCACGTCGGAGTCACCTAGTGCAG”, “TGTGTTGCAGCTTACCTTTGTGTTTCTTGTTCTTCCATGCCGGAGTCACCTAGTGCAG” is higher in binding signal: 8950 fluorescence intensity (a.u.) for the first, 10100 fluorescence intensity (a.u.) for the second.

First: GGGCTTTGACTTTTGATGTTTAAGTTTGATCAGCAAGTGACGGAGTCACCTAGTGCAG
Second: GCTAGCTGCTGTCTTGTGTTGTGTTGTGTTGTGTGGCATGCGGAGTCACCTAGTGCAG
The binding signal of the first is higher: 8470 fluorescence intensity (a.u.) for the first, 8220 fluorescence intensity (a.u.) for the second.
